At least one structure is not confirmed: it was looked up by name or label, or the drawing left a doubt.
System: murine collagen-induced arthritis (CIA) model
Experiment: Murine collagen-induced arthritis (CIA) model
Assay type: in vivo
Conditions: 0.2 mg/kg daily s.c.; plasma ELISA
Experimental: Male 6-8 week old B10RIII (Jackson Labs) mice were immunized at day 0, followed by a booster immunization on day 15.
Clinical scores started on day 16 and continued daily. Mice were sacrificed on day 26. Clinical scores of mouse paws were based on a 0-5 scoring system with 0 being normal and 5 being the most severe edema and erythema conditions. ELISAs on collected plasma samples were performed using commercial kits: IL-1β (R & D systems, Minneapolis, Minn.), anti-collagen II (Chondrex, Redmont, Wash.), and Rheumatoid Factors (IgG) (Alpha Diagnostic International, San Antonio, Tex.).
CA4 at 50, 33, and 0 (vehicle) mg/ml in osmotic pumps (0.5 ul/hr; equivalent to 25, 16 and 0 mg/kg/day) was administered subcutaneously to murine collagen-induced arthritis model usin ghte B10RIII strain 12 days after the 1st immunization (day 0) of type II collagen. […] Dexamethasone at 0.2 mg/kg was injected daily subcutaneously as a positive control.

For `C[C@@H]1C[C@H]2[C@@H]3CCC4=CC(=O)C=C[C@]4(C)[C@@]3(F)[C@@H](O)C[C@]2(C)[C@@]1(O)C(=O)CO` [dexamethasone, reference compound], the “anti-type II collagen antibody titer” value was “failed to do so”.
